Assay results taken from publication PMC8092270.
Results are given in words; binding and its absence hold for the method and conditions named. For some of these results: Binding can be weak; no strength is given.

Legend:
[1] = target: T1, C1 inhibitor serpin domain (residues 98 to 500) (human) (UniProt P05155); assay: cryo-EM structure; single-particle cryo-EM of the purified Vag8-C1-INH complex (0.5 mg/ml), Titan Krios 300 kV, 3.6 A; both purified
T1 sequence: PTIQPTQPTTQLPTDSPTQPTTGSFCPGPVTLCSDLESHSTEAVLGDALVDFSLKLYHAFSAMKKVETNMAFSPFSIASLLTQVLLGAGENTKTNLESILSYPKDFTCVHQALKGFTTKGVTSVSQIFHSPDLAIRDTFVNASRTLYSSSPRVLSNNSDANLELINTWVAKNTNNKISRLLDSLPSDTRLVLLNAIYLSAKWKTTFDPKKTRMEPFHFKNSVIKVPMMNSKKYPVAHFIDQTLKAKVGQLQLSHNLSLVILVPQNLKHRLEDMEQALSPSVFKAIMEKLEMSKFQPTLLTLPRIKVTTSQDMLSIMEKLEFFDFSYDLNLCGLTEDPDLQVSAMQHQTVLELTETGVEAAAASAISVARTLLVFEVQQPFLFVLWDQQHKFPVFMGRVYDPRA

[2] = target: T1, C1 inhibitor serpin domain (residues 98 to 500) (human); assay: SEC; 100-ul mixture of C1-INH (20 mM) and Vag8 WT or mutant (10 mM), room temperature, S200 Increase 10/300GL, 50 mM Tris-HCl-150 mM NaCl, pH 8.0, 0.4 ml/min; fractions on SDS-PAGE; both purified
[3] = target: T1, C1 inhibitor serpin domain (residues 98 to 500) (human); assay: condition: C1-INH (20 mM) and Vag8 WT or mutant (10 mM); SEC; 100-ul mixture of C1-INH (20 mM) and Vag8 WT or mutant (10 mM), room temperature, S200 Increase 10/300GL, 50 mM Tris-HCl-150 mM NaCl, pH 8.0, 0.4 ml/min; fractions on SDS-PAGE; both purified

Substance: Vag8 passenger domain (residues 40 to 610) (Bordetella pertussis) (domain or fragment)
- binding [1]: binds
- binding [2]: binds

Substance: Vag8 passenger domain A231R (Bordetella pertussis) (domain or fragment)
- binding [3]: no binding

Substance: Vag8 passenger domain E237A (Bordetella pertussis) (domain or fragment)
- binding [2]: binds

Substance: Vag8 passenger domain H209A (Bordetella pertussis) (domain or fragment)
- binding [2]: binds

Substance: Vag8 passenger domain W285A (Bordetella pertussis) (domain or fragment)
- binding [2]: binds

Substance: Vag8 passenger domain Y234A (Bordetella pertussis) (domain or fragment)
- binding [2]: binds
